Source: paper PMC7904567
No constants are given. Whether binding was seen depends on the method and setting. Some entries that bind do so weakly or less than the wild type.

Chains of the proteins cited; added tags and fusions are not shown. Residues count along the entry.
UniProt P34067, residues 86-263: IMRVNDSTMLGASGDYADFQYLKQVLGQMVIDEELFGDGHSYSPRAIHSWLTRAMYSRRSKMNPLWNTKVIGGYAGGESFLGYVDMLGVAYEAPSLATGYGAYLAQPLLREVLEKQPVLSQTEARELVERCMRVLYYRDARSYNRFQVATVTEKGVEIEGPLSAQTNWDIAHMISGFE

Assays:
Assay in all cases: two-hybrid; yeast two-hybrid screen with the bait Bsn1; other Bsn fragments tested against PSMB4 in the same assay; no methods section
[1] = molecular target: T1, Bsn fragment covering aa 609–1692 (rat) (UniProt O88778)
T1 sequence: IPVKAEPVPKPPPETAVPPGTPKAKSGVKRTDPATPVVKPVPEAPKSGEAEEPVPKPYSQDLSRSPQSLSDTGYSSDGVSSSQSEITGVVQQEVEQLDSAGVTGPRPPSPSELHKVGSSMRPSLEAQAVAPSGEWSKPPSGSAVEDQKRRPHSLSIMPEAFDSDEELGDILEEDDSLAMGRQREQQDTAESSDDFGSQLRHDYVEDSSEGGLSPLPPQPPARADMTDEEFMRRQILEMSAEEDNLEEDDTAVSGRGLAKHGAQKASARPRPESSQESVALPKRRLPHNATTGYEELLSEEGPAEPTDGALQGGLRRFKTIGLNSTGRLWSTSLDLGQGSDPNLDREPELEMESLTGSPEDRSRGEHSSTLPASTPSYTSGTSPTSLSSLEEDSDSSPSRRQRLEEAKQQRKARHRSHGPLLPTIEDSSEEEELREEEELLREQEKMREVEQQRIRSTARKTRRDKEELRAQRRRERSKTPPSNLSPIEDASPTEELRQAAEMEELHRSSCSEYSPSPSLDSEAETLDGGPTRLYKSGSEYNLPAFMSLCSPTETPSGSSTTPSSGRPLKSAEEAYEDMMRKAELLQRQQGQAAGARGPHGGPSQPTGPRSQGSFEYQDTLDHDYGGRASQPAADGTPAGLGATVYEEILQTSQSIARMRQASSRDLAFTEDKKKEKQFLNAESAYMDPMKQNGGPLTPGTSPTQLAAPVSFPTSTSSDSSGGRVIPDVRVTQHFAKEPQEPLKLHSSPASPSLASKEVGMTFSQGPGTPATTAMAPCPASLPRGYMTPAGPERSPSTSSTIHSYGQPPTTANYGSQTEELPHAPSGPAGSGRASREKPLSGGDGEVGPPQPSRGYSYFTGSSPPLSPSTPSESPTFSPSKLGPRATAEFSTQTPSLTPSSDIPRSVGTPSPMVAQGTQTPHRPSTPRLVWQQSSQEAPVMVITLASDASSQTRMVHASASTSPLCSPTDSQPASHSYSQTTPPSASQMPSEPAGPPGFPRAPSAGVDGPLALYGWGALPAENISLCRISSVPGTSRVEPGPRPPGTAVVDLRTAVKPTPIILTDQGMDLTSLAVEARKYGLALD

[2] = molecular target: T2, Bsn fragment covering aa 1–609 (rat) (UniProt O88778)
T2 sequence: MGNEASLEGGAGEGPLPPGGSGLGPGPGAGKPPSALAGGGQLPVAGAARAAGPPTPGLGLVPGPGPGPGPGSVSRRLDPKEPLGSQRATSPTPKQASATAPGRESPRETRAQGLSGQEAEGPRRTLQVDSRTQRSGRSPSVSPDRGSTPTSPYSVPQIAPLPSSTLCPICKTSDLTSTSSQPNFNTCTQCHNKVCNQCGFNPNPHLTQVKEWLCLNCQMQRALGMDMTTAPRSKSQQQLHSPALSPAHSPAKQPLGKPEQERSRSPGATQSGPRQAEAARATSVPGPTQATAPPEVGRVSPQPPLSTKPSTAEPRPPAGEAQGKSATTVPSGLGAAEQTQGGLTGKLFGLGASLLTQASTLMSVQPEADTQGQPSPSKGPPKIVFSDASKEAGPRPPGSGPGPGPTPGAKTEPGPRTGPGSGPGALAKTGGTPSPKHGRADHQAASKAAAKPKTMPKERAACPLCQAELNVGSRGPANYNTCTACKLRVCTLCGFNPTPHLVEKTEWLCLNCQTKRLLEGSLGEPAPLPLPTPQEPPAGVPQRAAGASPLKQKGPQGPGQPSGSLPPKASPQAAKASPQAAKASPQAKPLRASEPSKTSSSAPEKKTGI

[3] = molecular target: T3, Bsn fragment covering aa 3263–3938 (rat) (UniProt O88778)
T3 sequence: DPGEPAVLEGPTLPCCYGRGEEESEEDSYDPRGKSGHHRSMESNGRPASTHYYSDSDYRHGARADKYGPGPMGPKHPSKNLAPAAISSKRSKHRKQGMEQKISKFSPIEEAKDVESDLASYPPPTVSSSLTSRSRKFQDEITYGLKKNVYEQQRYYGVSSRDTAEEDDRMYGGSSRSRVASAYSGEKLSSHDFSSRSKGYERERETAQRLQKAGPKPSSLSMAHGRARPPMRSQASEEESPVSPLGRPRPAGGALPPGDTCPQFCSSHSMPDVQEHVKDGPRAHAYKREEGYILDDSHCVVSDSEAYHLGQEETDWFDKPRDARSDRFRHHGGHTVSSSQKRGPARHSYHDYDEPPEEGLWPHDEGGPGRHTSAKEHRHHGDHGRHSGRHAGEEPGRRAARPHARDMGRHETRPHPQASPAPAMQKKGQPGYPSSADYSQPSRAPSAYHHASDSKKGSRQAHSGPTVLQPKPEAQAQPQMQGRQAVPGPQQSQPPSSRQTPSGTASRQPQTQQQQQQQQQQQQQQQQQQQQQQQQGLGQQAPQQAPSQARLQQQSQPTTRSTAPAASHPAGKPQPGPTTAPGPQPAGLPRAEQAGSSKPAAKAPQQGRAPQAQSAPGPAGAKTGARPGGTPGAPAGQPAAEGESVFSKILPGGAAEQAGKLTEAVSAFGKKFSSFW

[4] = molecular target: Bsn1 bait fragment (aa 1692–3263 of rat Bsn) (rat) (UniProt O88778)

N-terminally truncated PSMB4 prey clone starting with aa 86 (from UniProt P34067 86-263) (domain or fragment)
binding [1]: no binding
binding [2]: no binding
binding [3]: no binding
binding [4]: binds
